These are yes or no findings as the source states them, for the method shown. Some binding calls cover weakened binding; strength is not graded here.
Molecular target: Rfa2-MeGFP-6xHis (subunit of S. cerevisiae RPA) (S. cerevisiae) (UniProt P26754)
Test: SEC; subunits co-expressed in E. coli and co-purified over Affi-Gel-Blue, Ni-NTA and Superdex 200 10/300 GL in T-500 buffer (25 mM Tris-HCl pH 7.5, 500 mM NaCl, 1 mM EDTA, 5% glycerol); fractions tested by SDS-PAGE and Coomassie

By UniProt entry, the sequences of proteins in these tests, tags left out.
UniProt P26754: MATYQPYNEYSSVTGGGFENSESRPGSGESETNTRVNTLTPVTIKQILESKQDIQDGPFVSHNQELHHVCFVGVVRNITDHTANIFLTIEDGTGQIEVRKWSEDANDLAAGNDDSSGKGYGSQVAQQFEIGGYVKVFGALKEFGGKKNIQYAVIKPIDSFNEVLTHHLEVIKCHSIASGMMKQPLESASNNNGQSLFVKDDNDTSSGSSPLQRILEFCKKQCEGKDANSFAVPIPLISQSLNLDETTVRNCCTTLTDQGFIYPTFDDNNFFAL
UniProt P22336: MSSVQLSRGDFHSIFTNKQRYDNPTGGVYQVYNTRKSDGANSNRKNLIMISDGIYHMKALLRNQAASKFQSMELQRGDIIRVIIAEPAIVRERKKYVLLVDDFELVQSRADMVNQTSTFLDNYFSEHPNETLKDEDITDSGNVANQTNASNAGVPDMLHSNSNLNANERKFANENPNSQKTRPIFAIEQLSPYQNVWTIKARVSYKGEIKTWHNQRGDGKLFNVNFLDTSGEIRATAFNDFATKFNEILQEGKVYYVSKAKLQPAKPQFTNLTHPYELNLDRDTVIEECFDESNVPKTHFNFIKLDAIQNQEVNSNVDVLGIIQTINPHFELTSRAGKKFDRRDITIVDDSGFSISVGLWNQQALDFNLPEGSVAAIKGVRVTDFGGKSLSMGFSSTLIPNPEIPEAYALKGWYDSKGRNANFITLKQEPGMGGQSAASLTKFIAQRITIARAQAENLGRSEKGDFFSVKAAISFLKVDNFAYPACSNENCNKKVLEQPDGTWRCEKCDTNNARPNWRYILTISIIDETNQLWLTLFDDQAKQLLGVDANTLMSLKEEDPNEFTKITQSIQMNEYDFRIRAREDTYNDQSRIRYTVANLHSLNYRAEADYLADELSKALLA
UniProt P26755: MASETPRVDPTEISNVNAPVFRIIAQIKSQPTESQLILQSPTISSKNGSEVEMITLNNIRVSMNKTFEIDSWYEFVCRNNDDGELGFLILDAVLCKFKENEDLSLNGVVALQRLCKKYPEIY

With “Rfa1 (subunit of S. cerevisiae RPA) (from UniProt P22336 1-621)” the binding was “binds”.

In the case of “Rfa3 (subunit of S. cerevisiae RPA) (from UniProt P26755 1-122)”, the binding was “binds”.

Source: article PMC10313831
